Measurements published in publication PMC10481494.
These are yes or no findings as the source states them, for the method shown. Binding seen in cells or lysates may run through a third protein. Some entries that bind do so weakly or less than the wild type.

The chains behind the UniProt entries cited, without tags or fusion partners.
UniProt Q61037: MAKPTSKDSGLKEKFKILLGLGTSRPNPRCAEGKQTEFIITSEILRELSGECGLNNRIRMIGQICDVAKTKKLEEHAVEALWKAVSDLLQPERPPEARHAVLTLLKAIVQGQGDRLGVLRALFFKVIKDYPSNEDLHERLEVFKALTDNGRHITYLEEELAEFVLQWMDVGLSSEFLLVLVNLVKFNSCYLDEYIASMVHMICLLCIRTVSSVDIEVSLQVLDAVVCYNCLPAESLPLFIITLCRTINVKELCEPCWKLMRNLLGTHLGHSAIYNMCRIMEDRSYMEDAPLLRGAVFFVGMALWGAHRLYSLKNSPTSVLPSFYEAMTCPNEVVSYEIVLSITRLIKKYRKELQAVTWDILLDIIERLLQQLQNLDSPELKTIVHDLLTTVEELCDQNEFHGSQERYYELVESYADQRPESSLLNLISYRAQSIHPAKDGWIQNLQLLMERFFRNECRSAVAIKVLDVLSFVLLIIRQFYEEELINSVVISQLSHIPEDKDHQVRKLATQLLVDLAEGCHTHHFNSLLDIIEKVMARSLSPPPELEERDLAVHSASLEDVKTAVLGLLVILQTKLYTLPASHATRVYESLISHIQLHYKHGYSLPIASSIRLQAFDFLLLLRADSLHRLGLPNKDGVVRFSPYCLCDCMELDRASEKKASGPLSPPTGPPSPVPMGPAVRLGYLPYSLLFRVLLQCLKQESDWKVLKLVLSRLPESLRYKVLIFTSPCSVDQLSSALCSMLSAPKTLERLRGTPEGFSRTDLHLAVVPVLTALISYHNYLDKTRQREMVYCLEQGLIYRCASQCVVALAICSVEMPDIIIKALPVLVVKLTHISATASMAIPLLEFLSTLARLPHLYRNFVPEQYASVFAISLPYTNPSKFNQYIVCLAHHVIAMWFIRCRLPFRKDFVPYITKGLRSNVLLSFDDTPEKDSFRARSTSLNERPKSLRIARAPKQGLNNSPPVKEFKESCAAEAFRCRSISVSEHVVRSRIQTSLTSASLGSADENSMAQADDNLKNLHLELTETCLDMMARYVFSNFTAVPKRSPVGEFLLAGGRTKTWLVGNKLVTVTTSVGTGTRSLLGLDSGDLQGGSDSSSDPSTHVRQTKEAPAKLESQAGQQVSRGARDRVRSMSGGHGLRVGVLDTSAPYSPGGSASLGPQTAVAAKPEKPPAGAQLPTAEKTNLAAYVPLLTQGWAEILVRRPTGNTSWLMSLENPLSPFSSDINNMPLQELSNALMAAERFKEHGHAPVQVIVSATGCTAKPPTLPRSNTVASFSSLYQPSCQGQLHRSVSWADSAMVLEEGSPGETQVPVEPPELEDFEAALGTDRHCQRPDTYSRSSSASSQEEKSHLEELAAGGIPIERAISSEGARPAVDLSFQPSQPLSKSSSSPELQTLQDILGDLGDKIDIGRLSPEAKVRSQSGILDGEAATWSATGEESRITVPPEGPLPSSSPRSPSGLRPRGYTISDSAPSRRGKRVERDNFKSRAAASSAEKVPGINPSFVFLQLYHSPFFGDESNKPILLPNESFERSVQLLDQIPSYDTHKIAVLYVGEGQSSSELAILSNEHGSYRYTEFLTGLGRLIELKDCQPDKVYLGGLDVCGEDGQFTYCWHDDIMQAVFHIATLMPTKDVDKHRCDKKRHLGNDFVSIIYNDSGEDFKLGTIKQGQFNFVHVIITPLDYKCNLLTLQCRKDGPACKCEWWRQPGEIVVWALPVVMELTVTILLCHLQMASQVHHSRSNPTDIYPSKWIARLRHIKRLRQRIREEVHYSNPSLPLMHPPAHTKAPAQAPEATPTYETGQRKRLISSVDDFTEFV

Biological target: T1, endogenous SIRT1 of BV2 microglial cells (mouse (endogenous in BV2)) (UniProt Q923E4)
T1 sequence: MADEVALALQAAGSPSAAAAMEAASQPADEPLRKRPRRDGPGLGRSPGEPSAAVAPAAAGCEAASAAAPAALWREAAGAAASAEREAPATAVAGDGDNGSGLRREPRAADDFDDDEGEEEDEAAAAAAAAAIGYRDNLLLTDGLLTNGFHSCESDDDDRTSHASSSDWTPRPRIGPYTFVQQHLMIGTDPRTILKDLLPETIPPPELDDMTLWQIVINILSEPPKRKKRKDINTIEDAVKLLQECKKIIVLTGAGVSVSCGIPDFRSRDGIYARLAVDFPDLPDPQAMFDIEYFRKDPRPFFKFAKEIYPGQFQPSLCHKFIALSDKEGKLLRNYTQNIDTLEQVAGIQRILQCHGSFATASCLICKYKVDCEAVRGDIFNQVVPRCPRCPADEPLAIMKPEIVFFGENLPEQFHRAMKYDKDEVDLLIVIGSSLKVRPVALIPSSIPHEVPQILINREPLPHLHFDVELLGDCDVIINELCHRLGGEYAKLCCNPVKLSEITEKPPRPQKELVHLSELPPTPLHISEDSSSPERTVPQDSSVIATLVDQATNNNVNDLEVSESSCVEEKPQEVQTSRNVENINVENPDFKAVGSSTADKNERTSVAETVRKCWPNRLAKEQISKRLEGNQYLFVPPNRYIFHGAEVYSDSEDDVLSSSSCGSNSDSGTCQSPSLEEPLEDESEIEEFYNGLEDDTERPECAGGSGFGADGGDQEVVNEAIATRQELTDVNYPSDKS
Experiment: co-IP; endogenous proteins in BV2 cell RIPA lysate; anti-TSC2 or anti-Sirt1 antibody overnight at 4 °C, protein A/G sepharose beads 3 h, five washes with RIPA buffer; immunoblot; IgG IP as control

binding: binds
Substance: endogenous TSC2 of BV2 microglial cells (from UniProt Q61037 1-1814)
